# The list shows a part of the results. Shown are side measurements of this screen, not its main read-out; they come without a call. The list favours compounds with an active or inconclusive main result. Potencies come from curve fits of mixed quality, noted in brackets.
# Assay: qHTS Assay to Find Inhibitors of Chronic Active B-Cell Receptor Signaling
# Details: ABC-DLBCL IkBa-CBG/CBR reporter, luminescence ratio (green luciferase fused to IkBa over red control in TMD8 lymphoma cells), 4 h
# Method in brief: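 TMD8 human ABC-DLBCL cells with doxycycline-inducible IκBα–green luciferase fusion and unfused red luciferase, in 0.5% FBS medium; compounds up to 46 uM, 4 h at 37C. Green/red luminescence ratio, filter-overlap corrected, fitted to concentration-response curves.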
# [1] = measured here: CBR red luminescence, cell number
# [2] = measured here: IkBa-CBG green luminescence
Structure (SMILES),AC50 [1],AC50 [2]
CNC(=O)C1CCN(Cc2cc3ccccc3n2Cc2cccc(C)c2)CC1,"6.31 µM [falling, partial curve, poor fit]",
Cc1ccc(-n2c(-c3cccc(C)c3)n[nH]c2=S)cc1,"2.91 µM [rising, partial curve, poor fit]",
O=C(Nc1ccc(O)cc1)/C(=C\C=C\c1ccccc1)NC(=O)c1ccccc1,"3.16 µM [falling, partial curve, poor fit]",
O=S(=O)(c1cnc(Cl)c(Br)c1)N1CCCCCC1,"2.59 µM [falling, full curve, poor fit]",
Cc1cc(C)n2nc(SCc3ccccc3F)nc2n1,"15.8 µM [rising, single point]",
CC(=O)Nc1cccn(Cc2c(Cl)cccc2Cl)c1=O,"0.708 µM [rising, full curve, poor fit]",
COCCN1C(=O)C(CC(=O)Nc2ccccc2)SC1=Nc1ccc(OC)cc1 (stereo not given),"23.1 µM [rising, single point]",
O=C(CCNS(=O)(=O)c1cccc2nsnc12)N1CC(=O)N(CCc2ccccc2)C(=O)C1,"35.5 µM [rising, single point]",
COc1ccccc1OCC(=O)NCCc1nc2ccccc2[nH]1,"17.8 µM [falling, single point]",
Cc1ccccc1OCC(=O)Nc1cccc(C(=O)O)c1,"2.24 µM [falling, full curve]",
Cc1ccc2nsnc2c1NC(=S)NC(=O)c1ccco1,"5.8 µM [falling, partial curve, poor fit]",
COc1cccc(C(=O)Nc2ccc(-n3nncc3C(C)(C)C)cc2)c1,"10 µM [falling, partial curve]",
CCc1noc(C)c1C(=O)Nc1nnc(CC(C)C)s1,"32.6 µM [falling, single point]",
CCCN1CCN(CCCNC(=O)CN2C(=O)c3cccnc3Oc3ccc(C)cc32)CC1,"4.47 µM [rising, single point]",
Cc1cc2nccc(-c3ccccn3)n2n1,"0.158 µM [falling, full curve, poor fit]",
C=CCSc1nc(Oc2ccccc2)c2sccc2n1,"10 µM [rising, partial curve]",
S=C(NCc1ccco1)Nc1cccc(Cl)c1Cl,"3.55 µM [rising, partial curve, poor fit]",
Oc1ccccc1C1CC(c2cccs2)=NC(c2ccc(Cl)cc2)N1 (stereo not given),"35.5 µM [falling, single point]",
Cc1cc(SCC(=O)N/N=C/c2ccc(O)cc2O)nc2ccccc12,"14.1 µM [falling, single point]",
Clc1ccc(-c2noc(COc3ccccc3)n2)cc1,"4.47 µM [rising, full curve, poor fit]",
CCc1cc2c(=O)[nH]c(N3CCOCC3)nc2s1,"29.1 µM [falling, single point]",

Structure (SMILES),AC50 [1],AC50 [2]
Cc1cccc(-c2sc(Nc3ccccc3)n[n+]2-c2ccccc2)c1,"20.6 µM [falling, single point]",
O=C(Nc1ccccc1C(=O)Nc1nnc(C(F)(F)F)s1)c1ccccc1Cl,"12.6 µM [falling, single point]","5.01 µM [rising, partial curve, poor fit]"
CC(C)CCNC(=O)c1csc2c1CCCCC2,"15.8 µM [rising, partial curve, poor fit]",
CCCCC1C(=O)N(c2ccccc2)N(c2ccccc2)C1=O,"12.6 µM [falling, partial curve, poor fit]",
CCCCn1c(-c2ccc([N+](=O)[O-])cc2)n[nH]c1=S,"11.2 µM [rising, partial curve]",
COc1cc(CCC(=O)OCC(=O)Nc2cccc(S(N)(=O)=O)c2)cc(OC)c1OC,"1.64 µM [rising, full curve, poor fit]",
CC(=O)Oc1cc2c(C(=O)NCCCN3CCOCC3)c(C)oc2c2ccccc12,"35.5 µM [falling, single point]",
COc1cc(-c2nnc(CSc3nnc(Nc4ccc(Oc5ccccc5)cc4)s3)o2)cc(OC)c1OC,"2.59 µM [rising, partial curve]",
Cc1[nH]c(=O)[nH]c(=O)c1S(=O)(=O)N1CCCC(C(=O)N2CCN(c3ccccc3Cl)CC2)C1 (stereo not given),"5.17 µM [rising, partial curve, poor fit]",
CC(C)(C)NC(=O)CSc1nc2ccccc2n1-c1ccccc1,"13 µM [falling, single point]",
COc1ccc(OC)c(NC(=O)c2ccc(-c3cccs3)cc2)c1,"2.82 µM [falling, full curve, poor fit]",
CCC(C)NC(=O)N1c2ccccc2Sc2ccccc21 (stereo not given),"0.501 µM [falling, full curve]",
CCn1c(SCC(=O)c2cc(C)n(CC3CCCO3)c2C)nc2ccccc21 (stereo not given),"5.62 µM [rising, single point]",
O=C(Nc1nc2c(s1)CCCC2)c1cccs1,"13 µM [falling, partial curve]",
Cc1ccc(S(=O)(=O)N(C)c2ccc(OC(=O)c3cc(=O)[nH]c4ccccc34)cc2)cc1,"4.11 µM [rising, full curve, poor fit]",
C#CCOCCOCCOCCNc1nc(N2CCN(C(=O)CCCCCCCCCCNC(=O)Cn3cc(CCCCCN)nn3)CC2)nc(N2CCN(C(=O)CCCCCCCCCCNC(=O)[C@H](CO)n3cc(CCCCCN)nn3)CC2)n1,"18.4 µM [rising, partial curve, poor fit]",
COc1ccc(CCN2CCCn3c2nc2c3c(=O)[nH]c(=O)n2C)cc1OC,,"8.91 µM [falling, partial curve, poor fit]"
Cc1ccc(CNc2ccc(O)cc2)cc1,"9.2 µM [rising, single point]",
C/C(=N\OCc1nc2ccccc2c(=O)n1/N=C/c1cc([N+](=O)[O-])ccc1O)c1ccccc1,"10 µM [falling, partial curve, poor fit]",
COc1ccc(NC(=O)c2ccc3c(=O)n(CC4CCCO4)c(=S)[nH]c3c2)c(OC)c1 (stereo not given),"4.47 µM [falling, partial curve, poor fit]",
CCOc1ccc(/C=N/Nc2ccccn2)cc1OC,"4.47 µM [rising, full curve, poor fit]",

# Grouped by structure, the compounds so far with an aryl methoxy group (9)
Structure (SMILES),AC50 [1],AC50 [2]
COCCN1C(=O)C(CC(=O)Nc2ccccc2)SC1=Nc1ccc(OC)cc1 (stereo not given),"23.1 µM [rising, single point]",
COc1ccccc1OCC(=O)NCCc1nc2ccccc2[nH]1,"17.8 µM [falling, single point]",
COc1cccc(C(=O)Nc2ccc(-n3nncc3C(C)(C)C)cc2)c1,"10 µM [falling, partial curve]",
COc1cc(CCC(=O)OCC(=O)Nc2cccc(S(N)(=O)=O)c2)cc(OC)c1OC,"1.64 µM [rising, full curve, poor fit]",
COc1cc(-c2nnc(CSc3nnc(Nc4ccc(Oc5ccccc5)cc4)s3)o2)cc(OC)c1OC,"2.59 µM [rising, partial curve]",
COc1ccc(OC)c(NC(=O)c2ccc(-c3cccs3)cc2)c1,"2.82 µM [falling, full curve, poor fit]",
COc1ccc(CCN2CCCn3c2nc2c3c(=O)[nH]c(=O)n2C)cc1OC,,"8.91 µM [falling, partial curve, poor fit]"
COc1ccc(NC(=O)c2ccc3c(=O)n(CC4CCCO4)c(=S)[nH]c3c2)c(OC)c1 (stereo not given),"4.47 µM [falling, partial curve, poor fit]",
CCOc1ccc(/C=N/Nc2ccccn2)cc1OC,"4.47 µM [rising, full curve, poor fit]",

# Next results follow:

Structure (SMILES),AC50 [1],AC50 [2]
CCOc1ccc(OCC)c(NC(=O)CSCCc2ccccn2)c1,"11.2 µM [falling, partial curve, poor fit]",
CN(C)c1ccc(C(=O)N/N=C/c2ccccn2)cc1,"35.5 µM [falling, single point]",
CCOC(=O)N1CCN(C(=O)c2ccccc2-c2ccccc2)CC1,"6.51 µM [falling, single point]",
CC[C@@]12C(=O)N(c3ccccc3)C(=O)N1[C@H](c1ccc(OC)cc1)[C@@H]1C(=O)N(C(C)(C)C)C(=O)[C@@H]12,"0.0103 µM [rising, full curve, poor fit]",
CCOc1ccc(CNC(=O)CCCc2cn(C)c3ccccc23)cc1,"11.2 µM [falling, partial curve]",
Cc1cc(NC(=O)c2cnn3cccnc23)nn1CC(=O)Nc1cccnc1,"29.1 µM [falling, single point]",
CC1(C(=O)NCCCNc2ncc(C(F)(F)F)cc2Cl)C=CCN1C(=O)c1ccccc1 (stereo not given),,"16.4 µM [falling, partial curve, poor fit]"
CN1CCN(C(=O)C2CCN(S(=O)(=O)c3cnc[nH]3)CC2)CC1,"23.1 µM [rising, single point]",
Cc1cnc(NC(=O)C2CC=CCC2)s1 (stereo not given),"22.4 µM [falling, single point]",
O=C(NNC(=O)c1cc(-c2ccncc2)nc2ccccc12)c1cccc(Cl)c1,"16.4 µM [falling, partial curve, poor fit]",
Cc1ccc2nc3n(c(=O)c2c1)-c1ccc(Cl)cc1C(=O)NC3Cc1ccccc1 (stereo not given),"8.2 µM [falling, partial curve]",
COc1ccc(OC)c(CN(CCCN2CCOCC2)C(=O)Nc2ccccc2)c1,"16.4 µM [rising, partial curve, poor fit]",
Cn1c(/C(C#N)=C/C2CC=CCC2)nc2ccccc21 (stereo not given),"0.58 µM [falling, full curve, poor fit]",
O=c1oc2ccccc2cc1-c1ccc(O)cc1,"2.59 µM [rising, full curve, poor fit]",
CC(C)(C)c1cc(C(C)(C)C)c2oc(=O)c(-c3nc4ccc(C(=O)O)cc4[nH]3)cc2c1,"1.3 µM [falling, partial curve, poor fit]",
CCN(CC)c1ccc(/C=N/NC(=O)c2cnccn2)cc1,"35.5 µM [falling, single point]","22.4 µM [falling, single point]"
O=C(CSc1c(Cl)cccc1Cl)NC1CCCc2ccccc21 (stereo not given),"32.6 µM [rising, single point]",
Cc1ccc2c(COC(=O)CNC(=O)c3ccccc3)cc(=O)oc2c1,"29.1 µM [rising, single point]",
CCn1c(C(=O)N2CCCC(C(=O)NCCCc3ccccc3)C2)cc2sccc21 (stereo not given),"23.1 µM [falling, single point]",
COCCNCCCCOc1c(Cl)cc(C)cc1Br,"10 µM [falling, partial curve, poor fit]",
CC(C)NC(=O)CSc1ccccc1C(=O)N1CCN(S(=O)(=O)/C=C/c2ccccc2)CC1,"20.6 µM [rising, partial curve]",

# Exported tab-delimited: part of the list above.
Structure (SMILES)	AC50 [1]	AC50 [2]
Cc1cc(C)n2nc(SCc3ccccc3F)nc2n1	15.8 µM [rising, single point]	
Cc1cnc(NC(=O)C2CC=CCC2)s1 (stereo not given)	22.4 µM [falling, single point]	

# Reference: PubChem BioAssay AID493014 (National Center for Advancing Translational Sciences (NCATS), 2011)
